Assay results taken from PMC4021559.
No constants are given. Whether binding was seen depends on the method and setting. In cells and extracts the contact can be indirect. Some entries that bind do so weakly or less than the wild type.

By UniProt entry, the sequences of proteins in these tests, tags left out. Residues count along the entry.
UniProt P62993: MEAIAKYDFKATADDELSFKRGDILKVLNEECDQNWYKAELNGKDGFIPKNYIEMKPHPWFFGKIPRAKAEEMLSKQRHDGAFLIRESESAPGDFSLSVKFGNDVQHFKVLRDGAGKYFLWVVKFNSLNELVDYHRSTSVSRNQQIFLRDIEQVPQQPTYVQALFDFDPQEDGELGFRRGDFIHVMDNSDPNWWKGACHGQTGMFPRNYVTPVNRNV
UniProt Q05397: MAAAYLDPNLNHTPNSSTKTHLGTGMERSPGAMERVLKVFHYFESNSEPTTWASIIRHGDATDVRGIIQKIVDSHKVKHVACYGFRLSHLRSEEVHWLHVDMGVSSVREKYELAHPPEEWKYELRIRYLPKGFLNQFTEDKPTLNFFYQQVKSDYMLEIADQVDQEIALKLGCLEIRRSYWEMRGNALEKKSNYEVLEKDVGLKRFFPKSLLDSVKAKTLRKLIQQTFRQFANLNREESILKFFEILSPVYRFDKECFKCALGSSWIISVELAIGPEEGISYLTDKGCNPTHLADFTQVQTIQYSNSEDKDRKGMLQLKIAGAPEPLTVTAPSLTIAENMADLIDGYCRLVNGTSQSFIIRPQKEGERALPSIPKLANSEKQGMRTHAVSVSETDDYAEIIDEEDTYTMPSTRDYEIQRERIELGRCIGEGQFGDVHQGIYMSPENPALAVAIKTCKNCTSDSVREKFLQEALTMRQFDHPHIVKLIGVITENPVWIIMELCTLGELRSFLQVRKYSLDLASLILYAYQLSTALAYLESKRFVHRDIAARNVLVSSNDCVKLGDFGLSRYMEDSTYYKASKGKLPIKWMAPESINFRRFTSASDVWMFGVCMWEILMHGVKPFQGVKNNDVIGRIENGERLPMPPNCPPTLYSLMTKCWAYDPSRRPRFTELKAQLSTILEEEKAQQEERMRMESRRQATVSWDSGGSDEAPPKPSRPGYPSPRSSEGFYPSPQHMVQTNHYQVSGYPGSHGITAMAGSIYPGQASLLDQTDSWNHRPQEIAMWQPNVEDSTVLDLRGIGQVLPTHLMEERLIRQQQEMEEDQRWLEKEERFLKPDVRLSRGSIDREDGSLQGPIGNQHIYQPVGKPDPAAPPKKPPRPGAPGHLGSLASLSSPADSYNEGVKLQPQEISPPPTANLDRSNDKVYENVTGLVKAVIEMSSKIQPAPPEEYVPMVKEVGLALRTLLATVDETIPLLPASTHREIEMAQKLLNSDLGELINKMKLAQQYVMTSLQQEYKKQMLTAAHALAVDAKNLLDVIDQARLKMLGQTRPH
UniProt P18433, residues 20-802: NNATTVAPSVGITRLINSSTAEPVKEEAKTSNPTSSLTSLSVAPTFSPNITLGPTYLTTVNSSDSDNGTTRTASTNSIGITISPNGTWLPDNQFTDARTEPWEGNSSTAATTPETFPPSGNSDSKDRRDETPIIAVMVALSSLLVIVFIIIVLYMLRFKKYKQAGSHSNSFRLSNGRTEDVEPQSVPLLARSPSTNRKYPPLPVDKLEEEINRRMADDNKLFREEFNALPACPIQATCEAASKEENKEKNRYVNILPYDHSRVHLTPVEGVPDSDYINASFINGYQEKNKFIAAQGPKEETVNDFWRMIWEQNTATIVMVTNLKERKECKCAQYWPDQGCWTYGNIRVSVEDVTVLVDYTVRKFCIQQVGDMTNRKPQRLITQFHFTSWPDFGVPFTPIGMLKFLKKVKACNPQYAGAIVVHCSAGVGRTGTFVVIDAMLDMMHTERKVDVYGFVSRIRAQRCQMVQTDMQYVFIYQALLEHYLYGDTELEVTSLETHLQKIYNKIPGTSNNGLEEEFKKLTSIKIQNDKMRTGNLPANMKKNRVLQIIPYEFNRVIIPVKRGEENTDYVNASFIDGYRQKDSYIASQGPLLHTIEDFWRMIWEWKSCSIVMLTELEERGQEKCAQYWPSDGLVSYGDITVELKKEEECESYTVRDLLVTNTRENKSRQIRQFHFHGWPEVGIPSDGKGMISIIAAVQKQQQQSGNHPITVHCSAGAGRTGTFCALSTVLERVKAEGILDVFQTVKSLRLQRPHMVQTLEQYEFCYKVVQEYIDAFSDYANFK

B1: Gab1 (Grb2-associated-Binding protein 1) (protein, UniProt Q13480 1-694)
chain: MSGGEVVCSGWLRKSPPEKKLKRYAWKRRWFVLRSGRLTGDPDVLEYYKNDHAKKPIRIIDLNLCQQVDAGLTFNKKEFENSYIFDINTIDRIFYLVADSEEEMNKWVRCICDICGFNPTEEDPVKPPGSSLQAPADLPLAINTAPPSTQADSSSATLPPPYQLINVPPHLETLGIQEDPQDYLLLINCQSKKPEPTRTHADSAKSTSSETDCNDNVPSHKNPASSQSKHGMNGFFQQQMIYDSPPSRAPSASVDSSLYNLPRSYSHDVLPKVSPSSTEADGELYVFNTPSGTSSVETQMRHVSISYDIPPTPGNTYQIPRTFPEGTLGQTSKLDTIPDIPPPRPPKPHPAHDRSPVETCSIPRTASDTDSSYCIPTAGMSPSRSNTISTVDLNKLRKDASSQDCYDIPRAFPSDRSSSLEGFHNHFKVKNVLTVGSVSSEELDENYVPMNPNSPPRQHSSSFTEPIQEANYVPMTPGTFDFSSFGMQVPPPAHMGFRSSPKTPPRRPVPVADCEPPPVDRNLKPDRKVKPAPLEIKPLPEWEELQAPVRSPITRSFARDSSRFPMSPRPDSVHSTTSSSDSHDSEENYVPMNPNLSSEDPNLFGSNSLDGGSSPMIKPKGDKQVEYLDLDLDSGKSTPPRKQKSSGSGSSVADERVDYVVVDQQKTLALKSTREAWTDGRQSTESETPAKSVK

target: Flag-tagged Grb2 (Growth factor receptor-bound protein 2), wild type (UniProt P62993); experiment: co-IP; anti-Flag immunoprecipitation of Flag-Grb2 (Protein A/G agarose, overnight, 4°C) from transfected HEK293T lysates in RIPA buffer (50 mM Tris-HCl pH 7.4, 150 mM NaCl, 1% NP-40, 20 mM N-ethylmaleimide), 4 washes, Western blot; equal Flag-Grb2 with increasing amounts of SUMO1/Ubc9 plasmids; for p-EGFR, p-SHP2 and FAK cells serum-starved 20 h then 100 ng/ml EGF 5 min or 10% serum 20 min

binding, binds:
FAK (Focal Adhesion Kinase) (from UniProt Q05397 1-1052) (enzyme)
PTPα (Receptor protein-tyrosine phosphatase α) (from UniProt P18433 20-802)
B1
